# From the supplement of paper PMC10849652
# Chains of the proteins cited; added tags and fusions are not shown. Lines headed by an entry give the natural chain unless they say otherwise; changes in a name come on top.
# UniProt Q9HBL8: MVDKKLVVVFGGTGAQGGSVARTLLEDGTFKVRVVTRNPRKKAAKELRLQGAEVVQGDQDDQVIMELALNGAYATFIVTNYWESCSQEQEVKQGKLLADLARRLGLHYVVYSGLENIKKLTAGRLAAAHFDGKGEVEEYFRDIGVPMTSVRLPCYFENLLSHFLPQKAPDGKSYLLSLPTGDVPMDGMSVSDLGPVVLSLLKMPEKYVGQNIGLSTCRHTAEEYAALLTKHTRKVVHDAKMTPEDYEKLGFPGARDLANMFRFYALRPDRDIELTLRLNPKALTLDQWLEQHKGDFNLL
# UniProt P40261: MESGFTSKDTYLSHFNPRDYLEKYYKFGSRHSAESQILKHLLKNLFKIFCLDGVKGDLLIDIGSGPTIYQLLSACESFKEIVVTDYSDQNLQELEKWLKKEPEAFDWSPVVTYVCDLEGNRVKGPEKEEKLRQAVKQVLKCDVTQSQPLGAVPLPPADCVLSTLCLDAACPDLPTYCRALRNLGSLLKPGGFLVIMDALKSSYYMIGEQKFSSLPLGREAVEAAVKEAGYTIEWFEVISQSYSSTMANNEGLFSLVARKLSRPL
# UniProt Q86WQ0: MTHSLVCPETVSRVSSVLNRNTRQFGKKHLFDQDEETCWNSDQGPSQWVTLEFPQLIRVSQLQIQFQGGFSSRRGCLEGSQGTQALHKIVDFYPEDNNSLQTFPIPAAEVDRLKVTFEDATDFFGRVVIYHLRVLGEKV
# UniProt Q8NCF5: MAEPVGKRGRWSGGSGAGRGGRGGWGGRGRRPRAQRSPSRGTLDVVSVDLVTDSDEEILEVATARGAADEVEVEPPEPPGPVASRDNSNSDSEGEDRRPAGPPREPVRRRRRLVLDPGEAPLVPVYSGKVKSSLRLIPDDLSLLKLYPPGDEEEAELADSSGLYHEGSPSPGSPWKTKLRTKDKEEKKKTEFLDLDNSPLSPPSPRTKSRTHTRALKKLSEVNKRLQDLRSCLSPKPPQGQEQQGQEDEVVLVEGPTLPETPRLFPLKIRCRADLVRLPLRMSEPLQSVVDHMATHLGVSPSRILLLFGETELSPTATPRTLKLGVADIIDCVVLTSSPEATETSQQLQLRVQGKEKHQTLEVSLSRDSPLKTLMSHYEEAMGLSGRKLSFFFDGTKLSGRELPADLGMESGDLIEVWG
# UniProt P48645: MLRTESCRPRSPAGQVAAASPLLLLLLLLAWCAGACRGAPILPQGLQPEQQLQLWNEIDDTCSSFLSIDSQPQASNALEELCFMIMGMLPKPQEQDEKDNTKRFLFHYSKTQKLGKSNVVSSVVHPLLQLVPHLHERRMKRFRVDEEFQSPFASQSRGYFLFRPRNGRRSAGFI
# UniProt O94916: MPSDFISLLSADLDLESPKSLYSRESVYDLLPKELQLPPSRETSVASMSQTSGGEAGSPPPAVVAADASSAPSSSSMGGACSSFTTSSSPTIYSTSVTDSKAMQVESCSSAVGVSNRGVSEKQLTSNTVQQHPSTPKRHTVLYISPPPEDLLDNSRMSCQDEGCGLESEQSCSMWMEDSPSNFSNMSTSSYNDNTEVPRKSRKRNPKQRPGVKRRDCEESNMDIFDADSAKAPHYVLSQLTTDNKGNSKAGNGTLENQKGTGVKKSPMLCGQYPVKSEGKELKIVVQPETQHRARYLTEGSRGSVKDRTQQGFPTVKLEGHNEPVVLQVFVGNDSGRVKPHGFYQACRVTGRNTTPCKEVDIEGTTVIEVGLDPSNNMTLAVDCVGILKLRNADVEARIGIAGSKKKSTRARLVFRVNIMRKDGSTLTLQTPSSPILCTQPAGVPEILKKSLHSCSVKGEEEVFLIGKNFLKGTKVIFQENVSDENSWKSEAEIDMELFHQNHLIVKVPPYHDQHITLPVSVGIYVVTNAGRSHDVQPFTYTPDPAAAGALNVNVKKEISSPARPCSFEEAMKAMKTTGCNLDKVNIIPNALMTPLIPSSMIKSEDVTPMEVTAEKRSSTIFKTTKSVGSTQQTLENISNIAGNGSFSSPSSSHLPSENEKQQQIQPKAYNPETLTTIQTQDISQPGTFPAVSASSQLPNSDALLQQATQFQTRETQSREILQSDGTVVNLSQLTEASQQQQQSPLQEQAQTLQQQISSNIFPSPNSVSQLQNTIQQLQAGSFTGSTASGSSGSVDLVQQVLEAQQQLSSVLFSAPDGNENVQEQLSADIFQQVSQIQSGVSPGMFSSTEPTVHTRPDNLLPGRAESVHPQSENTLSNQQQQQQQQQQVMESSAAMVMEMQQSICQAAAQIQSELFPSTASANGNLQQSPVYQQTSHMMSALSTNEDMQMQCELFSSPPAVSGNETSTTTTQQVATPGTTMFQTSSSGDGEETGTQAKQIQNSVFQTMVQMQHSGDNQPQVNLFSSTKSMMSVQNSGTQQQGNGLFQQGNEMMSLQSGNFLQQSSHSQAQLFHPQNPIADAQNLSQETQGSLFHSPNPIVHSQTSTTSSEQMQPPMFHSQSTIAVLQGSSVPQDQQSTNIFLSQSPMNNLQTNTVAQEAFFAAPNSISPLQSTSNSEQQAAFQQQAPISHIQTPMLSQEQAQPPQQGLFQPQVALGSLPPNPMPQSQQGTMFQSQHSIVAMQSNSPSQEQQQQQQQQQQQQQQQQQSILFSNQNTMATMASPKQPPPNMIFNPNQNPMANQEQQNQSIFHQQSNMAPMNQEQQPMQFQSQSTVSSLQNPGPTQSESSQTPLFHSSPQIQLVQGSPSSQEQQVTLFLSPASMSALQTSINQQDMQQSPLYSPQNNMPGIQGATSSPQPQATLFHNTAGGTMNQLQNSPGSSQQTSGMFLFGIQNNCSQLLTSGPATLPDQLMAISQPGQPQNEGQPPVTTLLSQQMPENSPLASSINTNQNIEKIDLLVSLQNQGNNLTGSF
# UniProt Q9BZ95: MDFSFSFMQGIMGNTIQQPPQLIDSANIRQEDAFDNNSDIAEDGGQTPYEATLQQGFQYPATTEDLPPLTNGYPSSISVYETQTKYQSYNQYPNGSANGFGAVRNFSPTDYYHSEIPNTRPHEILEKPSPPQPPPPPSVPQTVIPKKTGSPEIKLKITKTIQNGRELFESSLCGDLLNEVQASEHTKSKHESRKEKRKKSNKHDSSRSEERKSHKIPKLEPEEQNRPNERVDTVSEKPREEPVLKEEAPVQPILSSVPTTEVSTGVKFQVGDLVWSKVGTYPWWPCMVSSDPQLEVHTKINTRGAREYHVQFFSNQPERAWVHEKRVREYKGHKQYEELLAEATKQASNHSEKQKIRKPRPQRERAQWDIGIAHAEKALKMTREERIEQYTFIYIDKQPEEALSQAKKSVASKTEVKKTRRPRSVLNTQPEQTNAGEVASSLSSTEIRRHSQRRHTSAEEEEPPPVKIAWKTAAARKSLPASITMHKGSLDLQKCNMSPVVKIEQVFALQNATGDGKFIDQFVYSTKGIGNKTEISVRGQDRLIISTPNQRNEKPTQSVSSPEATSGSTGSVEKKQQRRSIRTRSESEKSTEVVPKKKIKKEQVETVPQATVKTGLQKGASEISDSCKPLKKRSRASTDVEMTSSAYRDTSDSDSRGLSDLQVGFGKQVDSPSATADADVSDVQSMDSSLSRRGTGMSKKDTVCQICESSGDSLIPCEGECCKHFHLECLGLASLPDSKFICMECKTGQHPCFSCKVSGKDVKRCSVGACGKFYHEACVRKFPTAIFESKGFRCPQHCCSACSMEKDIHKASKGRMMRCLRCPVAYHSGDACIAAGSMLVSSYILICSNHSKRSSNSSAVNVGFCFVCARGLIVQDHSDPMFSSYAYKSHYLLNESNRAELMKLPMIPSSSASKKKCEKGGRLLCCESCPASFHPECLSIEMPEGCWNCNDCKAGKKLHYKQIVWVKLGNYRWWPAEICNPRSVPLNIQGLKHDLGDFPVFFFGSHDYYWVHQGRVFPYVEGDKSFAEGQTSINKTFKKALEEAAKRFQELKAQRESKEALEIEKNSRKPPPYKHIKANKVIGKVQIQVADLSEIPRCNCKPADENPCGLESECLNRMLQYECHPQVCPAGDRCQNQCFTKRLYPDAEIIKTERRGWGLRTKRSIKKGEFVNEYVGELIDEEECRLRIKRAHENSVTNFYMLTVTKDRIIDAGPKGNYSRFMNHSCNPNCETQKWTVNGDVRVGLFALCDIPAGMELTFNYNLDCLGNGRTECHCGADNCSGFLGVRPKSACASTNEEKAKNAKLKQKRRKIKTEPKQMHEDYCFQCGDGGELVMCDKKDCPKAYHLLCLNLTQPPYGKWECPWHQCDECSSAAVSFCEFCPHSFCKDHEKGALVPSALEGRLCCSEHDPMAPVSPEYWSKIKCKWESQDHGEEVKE
# UniProt Q96IY1: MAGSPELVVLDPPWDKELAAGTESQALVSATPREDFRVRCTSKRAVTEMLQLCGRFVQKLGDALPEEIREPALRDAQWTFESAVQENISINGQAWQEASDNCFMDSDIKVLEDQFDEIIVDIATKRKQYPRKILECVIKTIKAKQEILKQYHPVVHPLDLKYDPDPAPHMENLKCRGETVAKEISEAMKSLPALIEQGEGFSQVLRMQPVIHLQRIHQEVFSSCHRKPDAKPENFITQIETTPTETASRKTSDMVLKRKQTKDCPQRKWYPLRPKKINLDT
# UniProt Q92686, whole entry, looked up: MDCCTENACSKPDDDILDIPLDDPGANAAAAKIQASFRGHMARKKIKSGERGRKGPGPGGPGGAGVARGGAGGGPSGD
# UniProt Q9NPE3: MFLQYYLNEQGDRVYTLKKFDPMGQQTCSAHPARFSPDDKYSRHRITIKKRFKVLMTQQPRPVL
# UniProt Q9H8H0: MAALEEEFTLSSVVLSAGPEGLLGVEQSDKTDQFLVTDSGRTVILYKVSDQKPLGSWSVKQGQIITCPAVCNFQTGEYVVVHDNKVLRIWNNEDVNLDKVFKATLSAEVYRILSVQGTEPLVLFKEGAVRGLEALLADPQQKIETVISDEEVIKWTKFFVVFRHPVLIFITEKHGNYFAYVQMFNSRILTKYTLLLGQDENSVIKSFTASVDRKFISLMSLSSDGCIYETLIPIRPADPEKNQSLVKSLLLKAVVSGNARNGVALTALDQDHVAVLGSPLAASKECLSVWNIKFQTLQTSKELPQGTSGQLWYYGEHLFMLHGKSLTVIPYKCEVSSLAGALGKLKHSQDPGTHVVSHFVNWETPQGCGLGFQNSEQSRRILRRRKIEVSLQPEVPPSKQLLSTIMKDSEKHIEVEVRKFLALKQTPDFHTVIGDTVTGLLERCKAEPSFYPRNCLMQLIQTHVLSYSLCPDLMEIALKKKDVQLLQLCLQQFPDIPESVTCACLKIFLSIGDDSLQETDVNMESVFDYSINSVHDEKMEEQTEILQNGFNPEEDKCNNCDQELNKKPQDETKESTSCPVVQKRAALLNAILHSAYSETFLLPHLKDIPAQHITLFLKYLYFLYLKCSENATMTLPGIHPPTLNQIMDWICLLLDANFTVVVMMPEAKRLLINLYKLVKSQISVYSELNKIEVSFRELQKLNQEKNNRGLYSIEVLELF
# UniProt Q13469: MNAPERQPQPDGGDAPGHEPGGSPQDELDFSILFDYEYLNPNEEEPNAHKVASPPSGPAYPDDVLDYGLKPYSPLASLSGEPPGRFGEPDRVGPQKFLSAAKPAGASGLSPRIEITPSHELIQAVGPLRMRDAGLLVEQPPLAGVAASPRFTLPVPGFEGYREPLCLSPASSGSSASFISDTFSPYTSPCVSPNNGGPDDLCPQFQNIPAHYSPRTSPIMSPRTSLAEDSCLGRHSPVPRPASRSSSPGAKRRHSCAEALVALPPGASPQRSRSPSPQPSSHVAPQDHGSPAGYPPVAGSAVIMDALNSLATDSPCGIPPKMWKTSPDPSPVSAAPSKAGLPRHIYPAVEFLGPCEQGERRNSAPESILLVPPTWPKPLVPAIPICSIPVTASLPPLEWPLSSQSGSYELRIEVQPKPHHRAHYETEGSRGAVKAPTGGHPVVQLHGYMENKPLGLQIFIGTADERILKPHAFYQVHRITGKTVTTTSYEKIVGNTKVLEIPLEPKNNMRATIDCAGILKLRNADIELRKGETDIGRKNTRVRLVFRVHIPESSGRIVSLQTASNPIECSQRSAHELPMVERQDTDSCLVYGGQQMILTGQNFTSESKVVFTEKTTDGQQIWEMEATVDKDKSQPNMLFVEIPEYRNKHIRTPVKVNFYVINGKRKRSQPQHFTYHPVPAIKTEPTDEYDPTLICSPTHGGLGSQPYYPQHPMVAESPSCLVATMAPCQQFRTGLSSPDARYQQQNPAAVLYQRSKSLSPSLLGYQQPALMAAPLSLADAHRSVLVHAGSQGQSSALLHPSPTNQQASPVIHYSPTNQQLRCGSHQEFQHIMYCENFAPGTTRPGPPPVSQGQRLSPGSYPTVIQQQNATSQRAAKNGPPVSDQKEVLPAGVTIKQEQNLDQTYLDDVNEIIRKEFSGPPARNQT
# Some of the results follow. Residues, ends and D or L forms follow the SMILES beside them. *: point of attachment. Cbz = O=C(OCc1ccccc1)*
# What was measured:
# Assay in all cases: log2 fold change, soluble protein after heating vs DMSO (PISA); higher = thermal stabilisation; K562 cells, 10 uM, 30 min; active = over 0.2 and 3.5 SD of the protein, either way, in both replicates (recomputed)
# IRAK-1-4 Inhibitor I = compound: C1COCCN1CCN2C3=CC=CC=C3N=C2NC(=O)C4=CC(=CC=C4)[N+](=O)[O-] [IRAK-1-4 Inhibitor I]
# Outline: (§1)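 K562 cells at 2×10^6 cells/mL were given 10 μM compound for 30 min. Aliquots then went through 3 min of heating across 48°C-58°C, were pooled, and were extracted in PBS with 0.5% NP-40 at 4°C, and the supernatant after 21,000xg for 90 min was quantified by TMTpro 16plex LC-MS/MS with channel sums equalised. Thermal stability relative to control samples, from duplicates, is given as log2 fold change.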
# ibrutinib = compound: C=CC(=O)N1CCC[C@@H](n2nc(-c3ccc(Oc4ccccc4)cc3)c3c(N)ncnc32)C1 [ibrutinib]
# Outline: as §1
# [1] = compound: CC(=O)c1cnc2ccc(-c3cc(Cl)c(O)c(Cl)c3)nc2c1N[C@H]1CC[C@H](CN(C)C)CC1
# Outline: as §1
# ralimetinib = compound: CC(C)(C)Cn1c(N)nc2ccc(-c3[nH]c(C(C)(C)C)nc3-c3ccc(F)cc3)nc21 [ralimetinib]
# Outline: as §1
# [2] = compound: CC(C)(O)CC(=O)NCCn1ccc2ncnc(Nc3ccc(Oc4cccc(C(F)(F)F)c4)c(Cl)c3)c21
# Outline: as §1
# [3] = compound: CC(C)C1=C2N=C(C=C(N2N=C1)NCC3=CC=CC=C3)NCCCCCCN
# Outline: as §1
# [4] = compound: CC(C)C[C@@H](C=O)NC(=O)[C@H](CC(C)C)NC(=O)[C@H](CC(C)C)NC(=O)OCc1ccccc1
# Outline: as §1
# pinometostat = compound: CC(C)N(C[C@H]1O[C@@H](n2cnc3c(N)ncnc32)[C@H](O)[C@@H]1O)[C@H]1C[C@@H](CCc2nc3cc(C(C)(C)C)ccc3[nH]2)C1 [pinometostat]
# Outline: as §1
# [5] = compound: CC1=C(C2=C(C=C1)C(=O)C3=CC=CC=C3N2CCCN)C
# Outline: as §1
# [6] = compound: CC1=C(C=C(C=C1)NC(=O)C2=CC(=CC=C2)C(C)(C)C#N)NC3=CC4=C(C=C3)N=CN(C4=O)C
# Outline: as §1
# [7] = compound: CC1=C(C=C(C=C1)NC(=O)C2=CC(=CC=C2)N(C)C)NC(=O)C3=CC=C(C=C3)O
# Outline: as §1
# [8] = compound: CC1=CC=C(C=C1)SC2=C3C=C(SC3=CN=C2)C(=O)N
# Outline: as §1
# [9] = compound: CC1=NC(=CC=C1)C2=C(N=C(N2)C(C)(C)C)C3=CC4=NC=CN=C4C=C3
# Outline: as §1
# Nexturastat A = compound: CCCCN(Cc1ccc(C(=O)NO)cc1)C(=O)Nc1ccccc1 [Nexturastat A]
# Outline: as §1
# vemurafenib = compound: CCCS(=O)(=O)Nc1ccc(F)c(C(=O)c2c[nH]c3ncc(-c4ccc(Cl)cc4)cc23)c1F [vemurafenib]
# Outline: as §1
# [10] = compound: CCCS(=O)(=O)Nc1ccc(F)c(C(=O)c2c[nH]c3ncc(Cl)cc23)c1F
# Outline: as §1
# [11] = compound: CCCc1cc(C)[nH]c(=O)c1CNC(=O)c1cc(-c2ccnc(N3CCN(C)CC3)c2)cc2c1cnn2C(C)C
# Outline: as §1
# givinostat = compound: CCN(CC)Cc1ccc2cc(COC(=O)Nc3ccc(C(=O)NO)cc3)ccc2c1 [givinostat]
# Outline: as §1
# barasertib = compound: CCN(CCCOc1ccc2c(Nc3cc(CC(=O)Nc4cccc(F)c4)[nH]n3)ncnc2c1)CCOP(=O)(O)O [barasertib]
# Outline: as §1
# [12] = compound: CC1=C(C(CC(=O)N1)C2=CC=C(C=C2)C(F)(F)F)C(=O)NC3=C(C=C4C(=C3)C=NN4)F
# Outline: as §1
Target,log2 fold change (IRAK-1-4 Inhibitor I),log2 fold change (ibrutinib),log2 fold change [1],log2 fold change (ralimetinib),log2 fold change [2],log2 fold change [3],log2 fold change [4],log2 fold change (pinometostat),log2 fold change [5],log2 fold change [6],log2 fold change [7],log2 fold change [8],log2 fold change [9],log2 fold change (Nexturastat A),log2 fold change (vemurafenib),log2 fold change [10],log2 fold change [11],log2 fold change (givinostat),log2 fold change (barasertib),log2 fold change [12]
NIBAN1 (UniProt Q9BZQ8),inactive: -0.125,inactive: 0,inactive: -0.163,inactive: 0.084,inactive: -0.07,active: -0.277,inactive: 0.037,inactive: 0.068,inactive: 0.02,inactive: 0.05,inactive: -0.036,inactive: 0.102,inactive: 0.01,inactive: 0.077,inactive: 0.046,inactive: 0.083,inactive: 0.039,inactive: 0.05,inactive: 0.063,–
NNT (UniProt Q13423),inactive: 0.013,inactive: -0.018,inactive: -0.016,inactive: -0.099,inactive: -0.056,inactive: 0.016,inactive: -0.053,inactive: -0.029,inactive: 0.037,inactive: 0.02,inactive: -0.004,inactive: 0.004,inactive: 0.058,inactive: -0.091,inactive: 0.025,inactive: 0.016,inactive: -0.023,inactive: 0.001,inactive: 0.01,–
NMRAL1 (UniProt Q9HBL8),inactive: 0.058,active: 0.874,inactive: 0.467,inactive: -0.016,inactive: -0.121,inactive: 0,inactive: -0.007,inactive: 0,inactive: 0.281,active: 1.01,inactive: 0.029,inactive: 0.025,inactive: -0.151,inactive: -0.138,inactive: 0.003,inactive: -0.074,inactive: 0.234,inactive: 0.027,inactive: -0.021,–
NNMT (UniProt P40261),inactive: 0.035,inactive: 0.06,inactive: -0.028,–,inactive: -0.026,inactive: -0.026,–,active: 0.276,inactive: -0.006,inactive: 0.038,–,inactive: 0.012,inactive: 0.039,inactive: -0.082,inactive: 0.011,inactive: -0.001,inactive: -0.093,inactive: -0.076,inactive: -0.04,–
NR2C2AP isoform 2 (UniProt Q86WQ0),inactive: -0.126,inactive: -0.003,inactive: -0.062,inactive: -0.056,inactive: 0.012,inactive: 0.01,inactive: -0.026,inactive: -0.073,inactive: 0.063,inactive: -0.053,inactive: -0.068,inactive: -0.007,inactive: 0.082,inactive: -0.101,inactive: -0.026,inactive: 0.066,inactive: -0.085,inactive: -0.035,inactive: -0.002,–
NFATC2IP (UniProt Q8NCF5),inactive: -0.014,inactive: -0.036,inactive: -0.051,inactive: -0.003,inactive: -0.224,inactive: -0.161,inactive: -0.006,inactive: -0.032,inactive: -0.022,inactive: -0.029,inactive: -0.026,inactive: 0.028,inactive: 0.013,inactive: 0.007,inactive: -0.01,inactive: 0.014,inactive: 0.015,inactive: 0.088,inactive: 0.124,–
NMU (UniProt P48645),inactive: -0.052,inactive: 0.027,inactive: 0.034,inactive: 0.063,inactive: 0.011,inactive: 0.123,inactive: 0.313,inactive: -0.106,inactive: -0.174,–,inactive: -0.052,inactive: 0.09,active: 0.411,inactive: 0.283,inactive: 0.067,inactive: -0.127,–,inactive: 0.001,inactive: 0.002,–
NOP53 (UniProt Q9NZM5),inactive: -0.209,inactive: 0.018,inactive: 0.303,inactive: 0.212,inactive: 0.411,inactive: 0.233,inactive: 0.089,inactive: 0.321,active: -1.19,inactive: -0.052,inactive: 0.005,inactive: -0.073,inactive: -0.163,inactive: 0.264,inactive: -0.154,inactive: -0.147,inactive: 0.204,inactive: 0.048,inactive: -0.105,–
NFAT5 isoform 5 (UniProt O94916),inactive: -0.06,inactive: 0.037,inactive: 0.073,–,inactive: 0.044,inactive: -0.052,–,inactive: 0.045,inactive: -0.152,inactive: -0.025,–,inactive: -0.126,inactive: 0,inactive: 0.054,inactive: -0.183,inactive: 0.171,inactive: -0.13,inactive: 0,inactive: -0.056,inactive: -0.039
NSD3 (UniProt Q9BZ95),inactive: 0.122,inactive: -0.024,inactive: 0.072,–,inactive: -0.018,inactive: 0.072,–,inactive: 0.057,inactive: 0.066,inactive: 0.038,–,–,inactive: -0.049,inactive: 0.389,inactive: 0.017,–,–,inactive: -0.08,inactive: -0.081,–
NOL6 (UniProt Q9H6R4),inactive: -0.057,inactive: 0.001,inactive: -0.05,inactive: 0.135,inactive: -0.031,–,inactive: 0.154,inactive: 0.064,inactive: -0.349,inactive: -0.14,inactive: -0.131,inactive: -0.13,inactive: -0.013,inactive: 0.149,inactive: -0.31,inactive: 0,inactive: -0.07,–,inactive: 0.089,–
NSL1 (UniProt Q96IY1),inactive: -0.069,inactive: -0.019,inactive: -0.045,inactive: 0.038,–,inactive: -0.095,inactive: 0.023,inactive: -0.093,inactive: -0.166,inactive: 0.021,inactive: 0.001,inactive: 0.087,inactive: 0.253,–,inactive: -0.034,inactive: 0.095,inactive: 0.044,inactive: 0.14,inactive: 0.03,inactive: -0.057
NRGN (UniProt Q92686),inactive: 0.151,inactive: 0.079,inactive: 0.034,inactive: 0.007,inactive: 0.053,inactive: 0.058,inactive: -0.199,inactive: 0.21,–,–,inactive: -0.168,inactive: 0.087,inactive: -0.171,inactive: 0.143,–,inactive: 0.032,–,inactive: -0.034,inactive: -0.14,–
NOP10 (UniProt Q9NPE3),inactive: -0.024,inactive: -0.02,–,inactive: 0.091,–,inactive: -0.069,inactive: 0.198,inactive: -0.028,–,–,inactive: -0.034,inactive: -0.196,inactive: 0.136,–,–,inactive: -0.094,inactive: 0.027,inactive: 0.029,inactive: -0.062,inactive: 0.047
NOL11 (UniProt Q9H8H0),inactive: 0.036,inactive: 0.031,inactive: 0.002,inactive: -0.028,inactive: 0.037,inactive: 0.21,inactive: -0.017,inactive: -0.014,active: 0.304,inactive: -0.023,inactive: 0.029,inactive: 0.004,inactive: 0.013,inactive: -0.024,inactive: -0.026,inactive: 0.003,inactive: -0.016,inactive: 0.015,inactive: -0.021,–
NOC2L (UniProt Q9Y3T9),inactive: -0.017,inactive: -0.045,inactive: -0.173,–,inactive: -0.105,inactive: -0.151,–,inactive: 0.063,inactive: -0.157,inactive: -0.036,–,inactive: -0.193,inactive: 0.017,inactive: 0.096,inactive: -0.004,inactive: 0,inactive: -0.02,inactive: 0.049,inactive: 0.094,inactive: -0.156
NFX1 (UniProt Q12986),inactive: -0.028,inactive: 0.083,inactive: -0.002,inactive: 0.178,inactive: 0.099,inactive: -0.051,inactive: 0.227,inactive: 0.182,inactive: -0.043,inactive: -0.113,inactive: 0.051,inactive: -0.082,inactive: 0.004,inactive: 0.287,inactive: 0.148,inactive: -0.032,inactive: 0.17,inactive: 0,inactive: -0.125,–
NFATC2 (UniProt Q13469),inactive: -0.075,inactive: -0.008,active: -0.635,inactive: -0.001,inactive: 0.011,inactive: -0.055,inactive: 0.099,inactive: 0.102,inactive: -0.033,inactive: -0.046,inactive: -0.079,inactive: -0.031,inactive: 0.018,inactive: 0.12,inactive: 0.038,inactive: 0.041,inactive: 0.086,inactive: 0.192,inactive: 0.107,–
NOMO3 (UniProt P69849),inactive: -0.037,inactive: -0.044,–,–,inactive: 0.009,inactive: -0.121,–,inactive: -0.01,–,inactive: -0.075,–,–,inactive: -0.051,inactive: -0.003,–,–,–,inactive: 0.024,inactive: 0.028,–

# Part of the list above, limited to log2 fold change (pinometostat), log2 fold change (barasertib) and log2 fold change [11]:
Target,log2 fold change (pinometostat),log2 fold change (barasertib),log2 fold change [11]
NR2C2AP isoform 2 (UniProt Q86WQ0),inactive: -0.073,inactive: -0.002,inactive: -0.085
NFATC2IP (UniProt Q8NCF5),inactive: -0.032,inactive: 0.124,inactive: 0.015
